Publication PMC11263447
These are yes or no findings as the source states them, for the method shown. In cells and extracts the contact can be indirect. Some entries that bind do so weakly or less than the wild type.

Target: p53, as found in the co-immunoprecipitations with ARTS and with XIAP (UniProt P04637)
Test: co-IP; cells lysed in RIPA buffer (50 mM Tris-HCl pH 7.5, 150 mM NaCl, 0.3% NP-40); antibody 5 µg per 1000 µg protein overnight at 4 °C; protein A/G agarose 4 h; five washes; western blot. Cell line not stated. Etoposide-treated cells for ARTS-p53.

binding: binds
B1: ARTS (Sept4_i2), as found in the co-immunoprecipitation with p53 (protein, UniProt O43236-6 1-274)
chain: MIKRFLEDTTDDGELSKFVKDFSGNASCHPPEAKTWASRPQVPEPRPQAPDLYDDDLEFRPPSRPQSSDNQQYFCAPAPLSPSARPRSPWGKLDPYDSSEDDKEYVGFATLPNQVHRKSVKKGFDFTLMVAGESGLGKSTLVNSLFLTDLYRDRKLLGAEERIMQTVEITKHAVDIEEKGVRLRLTIVDTPGFGDAVNNTECWKPVAEYIDQQFEQYFRDESGLNRKNIQDNRVHCCLYFISPFGHGYGPSLRLLAPPGAVKGTGQEHQGQGCH
